This note sets out measurements from publication PMC9644602.

The chains behind the UniProt entries cited, without tags or fusion partners.
UniProt P09874: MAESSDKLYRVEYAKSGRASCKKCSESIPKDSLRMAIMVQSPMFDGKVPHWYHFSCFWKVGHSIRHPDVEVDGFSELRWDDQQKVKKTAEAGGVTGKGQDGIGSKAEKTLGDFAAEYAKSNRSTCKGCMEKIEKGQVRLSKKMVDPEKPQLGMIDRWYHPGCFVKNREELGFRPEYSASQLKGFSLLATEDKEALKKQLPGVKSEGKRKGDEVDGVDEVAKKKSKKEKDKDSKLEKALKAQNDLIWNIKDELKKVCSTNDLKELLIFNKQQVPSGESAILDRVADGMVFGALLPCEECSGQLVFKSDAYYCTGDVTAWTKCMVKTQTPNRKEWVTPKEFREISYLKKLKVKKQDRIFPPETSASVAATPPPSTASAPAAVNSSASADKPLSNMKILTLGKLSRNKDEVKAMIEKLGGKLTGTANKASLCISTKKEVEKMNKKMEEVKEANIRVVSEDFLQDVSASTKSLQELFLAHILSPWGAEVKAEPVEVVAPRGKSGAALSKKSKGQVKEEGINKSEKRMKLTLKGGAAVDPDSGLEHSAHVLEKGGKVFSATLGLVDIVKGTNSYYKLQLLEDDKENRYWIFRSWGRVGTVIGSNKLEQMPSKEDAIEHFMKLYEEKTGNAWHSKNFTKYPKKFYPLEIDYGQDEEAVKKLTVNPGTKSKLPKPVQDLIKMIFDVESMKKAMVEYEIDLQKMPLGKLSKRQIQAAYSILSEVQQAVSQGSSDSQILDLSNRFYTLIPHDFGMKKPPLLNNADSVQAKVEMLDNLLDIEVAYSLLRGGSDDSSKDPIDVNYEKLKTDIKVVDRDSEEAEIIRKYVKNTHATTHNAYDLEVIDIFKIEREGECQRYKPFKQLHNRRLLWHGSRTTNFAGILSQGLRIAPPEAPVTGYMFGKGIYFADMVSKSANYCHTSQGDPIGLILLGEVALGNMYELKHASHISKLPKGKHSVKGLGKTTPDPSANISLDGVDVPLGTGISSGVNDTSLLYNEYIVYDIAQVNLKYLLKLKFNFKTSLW
UniProt P11103: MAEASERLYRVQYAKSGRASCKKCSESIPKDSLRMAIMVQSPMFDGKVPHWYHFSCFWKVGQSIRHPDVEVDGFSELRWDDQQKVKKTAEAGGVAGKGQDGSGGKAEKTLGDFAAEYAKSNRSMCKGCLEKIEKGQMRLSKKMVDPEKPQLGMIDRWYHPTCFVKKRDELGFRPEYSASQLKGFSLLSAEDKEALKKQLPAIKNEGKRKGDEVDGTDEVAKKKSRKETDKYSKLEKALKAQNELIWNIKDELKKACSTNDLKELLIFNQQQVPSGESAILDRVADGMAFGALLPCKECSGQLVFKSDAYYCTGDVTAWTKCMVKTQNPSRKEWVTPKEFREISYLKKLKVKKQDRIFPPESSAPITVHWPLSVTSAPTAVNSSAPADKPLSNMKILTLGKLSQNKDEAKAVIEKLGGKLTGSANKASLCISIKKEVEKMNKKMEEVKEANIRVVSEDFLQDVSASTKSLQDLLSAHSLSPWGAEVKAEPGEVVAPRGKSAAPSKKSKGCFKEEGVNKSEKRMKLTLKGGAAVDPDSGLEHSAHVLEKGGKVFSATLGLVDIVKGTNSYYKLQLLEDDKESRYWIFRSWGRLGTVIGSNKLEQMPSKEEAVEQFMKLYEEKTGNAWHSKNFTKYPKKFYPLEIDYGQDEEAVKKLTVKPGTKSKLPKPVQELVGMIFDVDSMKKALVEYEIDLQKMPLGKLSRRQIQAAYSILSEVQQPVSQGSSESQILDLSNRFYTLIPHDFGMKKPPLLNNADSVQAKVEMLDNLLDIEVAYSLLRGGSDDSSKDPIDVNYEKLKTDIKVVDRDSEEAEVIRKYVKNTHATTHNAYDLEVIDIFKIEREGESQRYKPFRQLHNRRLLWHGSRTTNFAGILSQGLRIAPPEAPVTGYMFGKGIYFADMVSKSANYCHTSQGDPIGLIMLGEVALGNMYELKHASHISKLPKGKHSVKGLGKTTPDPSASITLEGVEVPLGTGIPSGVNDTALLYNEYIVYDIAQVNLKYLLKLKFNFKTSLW

Assay [1] deals with T1, Recombinant human STAT6 (polyHis-tagged) (human) (UniProt P42226).
T1 sequence: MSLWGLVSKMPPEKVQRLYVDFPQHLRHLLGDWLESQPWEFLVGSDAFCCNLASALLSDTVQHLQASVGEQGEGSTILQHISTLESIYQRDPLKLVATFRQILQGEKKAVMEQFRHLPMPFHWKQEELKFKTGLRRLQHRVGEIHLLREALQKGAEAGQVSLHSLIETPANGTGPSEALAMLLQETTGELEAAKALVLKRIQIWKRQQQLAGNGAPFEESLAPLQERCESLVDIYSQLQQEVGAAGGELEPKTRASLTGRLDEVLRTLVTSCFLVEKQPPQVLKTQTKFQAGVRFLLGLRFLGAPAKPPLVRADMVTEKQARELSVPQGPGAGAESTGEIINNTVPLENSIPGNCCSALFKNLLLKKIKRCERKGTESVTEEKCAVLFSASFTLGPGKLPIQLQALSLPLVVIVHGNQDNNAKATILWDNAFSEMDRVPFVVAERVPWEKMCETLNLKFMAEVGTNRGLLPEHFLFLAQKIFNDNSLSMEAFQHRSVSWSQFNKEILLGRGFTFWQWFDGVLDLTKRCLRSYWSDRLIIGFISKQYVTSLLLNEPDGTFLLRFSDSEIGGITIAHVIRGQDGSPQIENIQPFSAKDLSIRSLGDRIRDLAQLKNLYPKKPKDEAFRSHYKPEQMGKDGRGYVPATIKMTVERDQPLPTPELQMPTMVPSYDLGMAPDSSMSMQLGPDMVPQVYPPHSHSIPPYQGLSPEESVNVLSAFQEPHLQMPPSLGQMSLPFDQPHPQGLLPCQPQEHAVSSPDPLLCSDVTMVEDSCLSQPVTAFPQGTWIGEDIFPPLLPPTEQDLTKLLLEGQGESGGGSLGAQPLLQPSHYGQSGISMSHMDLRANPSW
Briefly: pull-down; Ni-NTA pulldown of polyHis-STAT6 from the cell-free PARylation reaction (recombinant PARP-1, NAD+, 30 min at 37 °C), with or without sheared DNA (DSBs); immunoblot; both purified. A general note: A western blot detects proteins with antibodies after separation by electrophoresis.

Assay [2] has as its target T2, STAT6 (endogenous, mouse splenocytes) (mouse (endogenous in splenocytes)) (UniProt P52633).
T2 sequence: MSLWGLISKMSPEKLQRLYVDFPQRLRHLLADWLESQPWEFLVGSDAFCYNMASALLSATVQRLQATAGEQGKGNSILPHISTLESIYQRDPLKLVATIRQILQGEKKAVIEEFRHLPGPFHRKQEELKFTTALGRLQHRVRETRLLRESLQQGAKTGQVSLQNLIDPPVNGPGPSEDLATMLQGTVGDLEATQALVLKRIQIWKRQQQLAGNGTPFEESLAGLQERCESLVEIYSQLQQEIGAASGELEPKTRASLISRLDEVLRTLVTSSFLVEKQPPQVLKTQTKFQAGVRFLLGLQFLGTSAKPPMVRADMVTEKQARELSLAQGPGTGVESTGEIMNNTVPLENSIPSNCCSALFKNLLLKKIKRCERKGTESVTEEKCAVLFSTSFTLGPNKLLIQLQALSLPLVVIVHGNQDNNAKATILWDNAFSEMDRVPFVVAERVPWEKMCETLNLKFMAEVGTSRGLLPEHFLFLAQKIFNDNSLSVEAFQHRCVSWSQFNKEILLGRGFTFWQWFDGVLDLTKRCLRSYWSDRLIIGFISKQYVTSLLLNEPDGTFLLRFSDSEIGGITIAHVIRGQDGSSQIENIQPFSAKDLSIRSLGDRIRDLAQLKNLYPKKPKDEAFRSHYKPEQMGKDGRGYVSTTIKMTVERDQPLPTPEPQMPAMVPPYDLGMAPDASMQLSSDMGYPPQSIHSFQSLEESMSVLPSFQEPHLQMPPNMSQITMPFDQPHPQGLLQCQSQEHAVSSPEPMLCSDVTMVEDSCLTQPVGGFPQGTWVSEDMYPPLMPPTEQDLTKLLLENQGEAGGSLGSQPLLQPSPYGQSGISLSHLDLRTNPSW
Briefly: co-IP; IP with antibodies to STAT6 from protein extracts of mouse splenocytes, untreated or treated with IL-4 for the indicated times; immunoblot for PARP-1; interaction seen around 8 to 12 h after IL-4.

These are yes or no findings as the source states them, for the method shown. For some assays here: Binding seen in cells or lysates may run through a third protein. Some results given as binding are weak or reduced against the parent protein; the word gives no strength. For some assays here: Tags and fused reporters may be left off the sequences shown.

For the substance “Recombinant human PARP-1 (from UniProt P09874 1-1014) (enzyme)”, the binding result in assay [1] is “binds”. In the case of “PARP-1 (endogenous, mouse splenocytes) (from UniProt P11103 1-1013) (enzyme)”, the binding entry in assay [2] is “binds”.
